In PubChem BioAssay AID248 (DTP/NCI, 2004) one finds survivor count and T/C data, which are given here for 25 compounds.

This test concerns L1210 leukemia ip in BDF1 mice, survival T/C. Description: NCI In Vivo Anticancer Drug Screen. Data for tumor model L1210 Leukemia (intraperitoneal) in B6D2F1 (BDF1) mice. As to conditions: T/C endpoint: mean survival time, higher T/C = longer survival.
The mark [1] stands for this setting: dose: 100.0 mg/kg/injection, schedule: Q04DX003 (ip), vehicle: acetone.
[2] abbreviates: dose: 200.0 mg/kg/injection, schedule: Q04DX003 (ip), vehicle: acetone.
Setting [3] is: dose: 400.0 mg/kg/injection, schedule: Q04DX003 (ip), vehicle: acetone.
Where [4] appears, read: dose: 100.0 mg/kg/injection, schedule: Q01DX001 (ip), vehicle: saline.
Setting [5] is: dose: 50.0 mg/kg/injection, schedule: Q04DX003 (ip), vehicle: saline with Tween-80.
Setting [6] is: dose: 100.0 mg/kg/injection, schedule: Q04DX003 (ip), vehicle: saline with Tween-80.
[7] abbreviates: dose: 200.0 mg/kg/injection, schedule: Q01DX001 (ip), vehicle: saline.
Setting [8] is: dose: 200.0 mg/kg/injection, schedule: Q04DX003 (ip), vehicle: saline with Tween-80.
Where [9] appears, read: dose: 400.0 mg/kg/injection, schedule: Q01DX001 (ip), vehicle: saline.
Where [10] appears, read: dose: 400.0 mg/kg/injection, schedule: Q04DX003 (ip), vehicle: Klucel (hydroxypropylcellulose) (HPC).
[11] abbreviates: dose: 400.0 mg/kg/injection, schedule: Q04DX003 (ip), vehicle: saline with Tween-80.
The mark [12] stands for this setting: dose: 100.0 mg/kg/injection, schedule: Q01DX009 (ip), vehicle: saline with Tween-80.

The list shows only some results of the screen, not a fair sample: it gathers tests that were run many times, whatever their T/C, doses with no T/C, and many T/C values between a quarter and a half above the control. Other doses and runs of a compound stand elsewhere. T/C: endpoint of the treated group in % of that of the vehicle group. Some entries give survivors of the animals treated and no T/C: the source holds a T/C of zero for them, seemingly a mark for toxic or unscored doses. Some survivor counts are full or nearly so, which does not show that the dose was tolerated: the source hardly ever lists a survival T/C far under the control, and the zero likely stands for such cases as well. Counts of survivors are from the toxicity check (mostly the fifth day) where no day follows; animals may have died later. Schedules are NCI's codes, taken here to give the interval after Q, in days (D) or hours (H), and the number of doses after X. Some schedule codes hold Z or #, which are not explained here. Some molecules as drawn cover several salts, stereoisomers or complexes of the source; a dose is that of the sample tested. Some entries hold several experiments; the values are given in rising order. For survival time, the PubChem record calls one and a half times the control and up active, and a quarter to a half above the control has no call in these data; cut-offs in other NCI protocols can differ. Some T/C values are followed by the survivors on the day toxicity was checked, most often the fifth; where none is given, no animal had died by that day.

`CCCCCCCCCCCCCCCCP(=O)(OCCOCCCCCC)OCCOCCCCCC`: the survivor count (dose: 75.0 mg/kg/injection, schedule: Q01DX009 (ip), vehicle: saline) was 3 of 6; the survivor count under setting [1] is reported as 2 of 6; the survivor count (dose: 115.0 mg/kg/injection, schedule: Q01DX009 (ip), vehicle: saline) is given as 2 of 6; the survivor count (dose: 170.0 mg/kg/injection, schedule: Q01DX009 (ip), vehicle: saline) was 1 of 6; the survivor count under setting [2] is on record as 4 of 6; the survivor count under setting [3] was 1 of 6.

Turning to `CCCN1CCCC(OC(=O)N(C)C)C1` (centres undefined), the survivor count (dose: 400.0 mg/kg/injection, schedule: Q04DX002 (ip), vehicle: Klucel (hydroxypropylcellulose) (HPC)) is listed as 1 of 3.

As to `O=C(OC1CCC/C=C\CCCC1)c1ccc(Cl)cc1` (centres undefined), the survivor count under setting [4] is reported as 6 of 6.

Take `CSc1nnc([N+](=O)[O-])s1`: the survivor count (dose: 25.0 mg/kg/injection, schedule: Q01DX009 (ip), vehicle: Klucel (hydroxypropylcellulose) (HPC)) is listed as 5 of 6.

Take `CC1(C)N=C(N)N=C(N)N1c1cccc(CCCCc2ccc(Cl)cc2Cl)c1`: the survivor count was 2 of 4 (dose: 40.0 mg/kg/injection, schedule: Q01DX001 (ip), vehicle: saline); 2 of 4 (dose: 50.0 mg/kg/injection, schedule: Q01DX001 (ip), vehicle: saline); 3 of 6 under setting [5]; 0 of 4 (dose: 80.0 mg/kg/injection, schedule: Q01DX001 (ip), vehicle: saline); 0 of 4 under setting [4]; 0 of 6 (dose: 100.0 mg/kg/injection, schedule: Q04DX003 (ip), vehicle: Klucel (hydroxypropylcellulose) (HPC)). Moreover, the survivor count is 0 of 6 and 1 of 6 under setting [6]; 0 of 4 under setting [7]; 1 of 6 (dose: 200.0 mg/kg/injection, schedule: Q04DX003 (ip), vehicle: Klucel (hydroxypropylcellulose) (HPC)); 0 of 6 under setting [8]; 0 of 4 under setting [9]; 0 of 6 under setting [10]. In addition, under setting [11], the survivor count is 0 of 6.

For `CCC1OC(=O)CC(O)C(C)C(OC2OC(C)CC(N(C)C)C2O)C(CC=O)CC(C)C(=O)/C=C/C2(C)OC2C1C` (centres undefined), the survivor count (dose: 300.0 mg/kg/injection, schedule: Q01DX009 (ip), vehicle: saline with Tween-80) was 0 of 6.

For `Cc1ccc(C(=O)C(C)CN2CCCCC2)cc1` (centres undefined), the survivor count under setting [9] is recorded as 0 of 4.

With `CCCc1c(Cl)nc(Cl)nc1Cl`, the survivor count is on record as 3 of 6 (dose: 75.0 mg/kg/injection, schedule: Q01DX009 (ip), vehicle: acetone); 0 of 6 (dose: 150.0 mg/kg/injection, schedule: Q01DX009 (ip), vehicle: acetone); 1 of 6 under setting [2]; 0 of 6 under setting [3]. Besides, under setting [1], the T/C was 131 % of control [5 of 6 alive].

Turning to `c1ccc(-c2oc(-c3ccccc3)c(-c3ccccc3)c2-c2ccccc2)cc1`, the survivor count under setting [8] is 3 of 3.

For `O=C(O)c1cccc(S)c1`, the survivor count (dose: 400.0 mg/kg/injection, schedule: Q04DX002 (ip), vehicle: saline with Tween-80) is recorded as 1 of 3.

For the compound `CN1CCN(C(=S)Nc2ccccc2)CC1`, the survivor count is on record as 3 of 6 (dose: 200.0 mg/kg/injection, schedule: Q01DX001 (ip), vehicle: Klucel (hydroxypropylcellulose) (HPC)) and 3 of 6 (dose: 400.0 mg/kg/injection, schedule: Q01DX001 (ip), vehicle: Klucel (hydroxypropylcellulose) (HPC)).

`Nc1ccc(C(=O)O)cn1`: under setting [9], the survivor count is 2 of 4.

As for `c1ccc2cc(CCSSCCc3ccc4ccccc4c3)ccc2c1`, the survivor count is, setting by setting: under setting [4], 4 of 4; under setting [9], 4 of 4.

In the case of `CN=C(NC)c1ccc(NC(=O)CCc2ccc(C(=O)Nc3ccc(C(=NC)NC)cc3)cc2)cc1`, the T/C (dose: 5.25 mg/kg/injection, schedule: Q01DX Z (ip), vehicle: carboxymethylcellulose (CMC)) is 135 % of control and the T/C (dose: 21.0 mg/kg/injection, schedule: Q01DX Z (ip), vehicle: carboxymethylcellulose (CMC)) is 144 % of control. Besides, the survivor count (dose: 42.0 mg/kg/injection, schedule: Q01DX Z (ip), vehicle: carboxymethylcellulose (CMC)) is given as 0 of 6.

Regarding `CCS(=O)(=O)Nc1cccc(Nc2c3cccc(C)c3nc3c(C)cccc23)c1OC`, the T/C is 141 % of control (dose: 6.25 mg/kg/injection, schedule: Q01DX009 (ip), vehicle: saline with Tween-80); 125 % of control (dose: 8.2 mg/kg/injection, schedule: Q01DX009 (ip), vehicle: saline); 142 % of control (dose: 25.0 mg/kg/injection, schedule: Q04DX003 (ip), vehicle: saline); 130 % of control (dose: 50.0 mg/kg/injection, schedule: Q01DX009 (sc), vehicle: Klucel (hydroxypropylcellulose) (HPC)); 137 % of control (dose: 100.0 mg/kg/injection, schedule: Q01DX009 (sc), vehicle: Klucel (hydroxypropylcellulose) (HPC)). The survivor count was 6 of 6 under setting [12] and 9 of 10 (dose: 200.0 mg/kg/injection, schedule: Q04DX003 (ip), vehicle: saline).

Consider `Cn1c2c(sc1=O)CCC2`, for which, under “dose: 100.0 mg/kg/injection, schedule: Q01DX Z (ip), vehicle: methylcellulose (MC)”, the T/C is 127 % of control. Moreover, the survivor count under setting [10] is 2 of 6.

Turning to `CCCCN=C([Se])NCCCC`, for the setting “dose: 120.0 mg/kg/injection, schedule: Q01DX015 (ip), vehicle: carboxymethylcellulose (CMC)”, the survivor count is recorded as 0 of 6.

For the compound `N=C(N)SCCN1CCCCC1`, the survivor count (dose: 300.0 mg/kg/injection, schedule: Q01DX001 (ip), vehicle: acetone) is listed as 0 of 6.

As for `CCCCCCCCCCCCC(C)C(=O)O` (centres undefined), the survivor count (dose: 100.0 mg/kg/injection, schedule: Q04DX002 (ip), vehicle: Klucel (hydroxypropylcellulose) (HPC)) was 3 of 3.

With `CC(C)(C)C1CCC(=N[N+](C)(C)C)CC1` (centres undefined), the survivor count runs as follows: under setting [7], 2 of 4; under setting [9], 0 of 4.

`CCCCCCCCCCCCCCCCS(=O)(=O)N/N=C(/c1cccc(N)c1)N1CCCCC1`: the survivor count under setting [8] is given as 6 of 6.

Regarding `O=C(Nc1nc(Cl)nc(Cl)n1)N1CCOCC1`, the survivor count was 1 of 6 (dose: 50.0 mg/kg/injection, schedule: Q01DX009 (ip), vehicle: saline with Tween-80); 2 of 6 under setting [5]; 0 of 6 under setting [12]; 1 of 6 under setting [6]; 1 of 6 under setting [8]; 0 of 6 under setting [11].

For `O=C1N(Cl)C(=O)C(c2ccccc2)(c2ccc(F)cc2)N1Cl` (centres undefined), the survivor count is, setting by setting: (dose: 200.0 mg/kg/injection, schedule: Q01DX009 (ip), vehicle: Klucel (hydroxypropylcellulose) (HPC)) 0 of 6; under setting [10], 2 of 6.

Regarding `COC(=O)CC(=O)C=P(c1ccccc1)(c1ccccc1)c1ccccc1`, the survivor count (dose: 200.0 mg/kg/injection, schedule: Q01DX009 (ip), vehicle: saline with Tween-80) is 1 of 6 and the survivor count (dose: 400.0 mg/kg/injection, schedule: Q01DX009 (ip), vehicle: saline with Tween-80) was 0 of 6.

With `O=C1c2ccccc2C(=O)C(Cl)C1Cl` (centres undefined), the survivor count by setting is: (dose: 12.5 mg/kg/injection, schedule: Q04DX003 (ip), vehicle: other) 0 of 6; (dose: 25.0 mg/kg/injection, schedule: Q04DX003 (ip), vehicle: other) 0 of 6; (dose: 100.0 mg/kg/injection, schedule: Q04DX003 (ip), vehicle: other) 0 of 6; (dose: 200.0 mg/kg/injection, schedule: Q04DX003 (ip), vehicle: other) 0 of 6; (dose: 400.0 mg/kg/injection, schedule: Q04DX003 (ip), vehicle: other) 0 of 6.
